Laboratory results reported in patent publication US20190309072A1.
No constants are given. Whether binding was seen depends on the method and setting. Some entries that bind do so weakly or less than the wild type.

T1: human ITGa3 protein (human) (UniProt P26006)
T1 sequence (looked up): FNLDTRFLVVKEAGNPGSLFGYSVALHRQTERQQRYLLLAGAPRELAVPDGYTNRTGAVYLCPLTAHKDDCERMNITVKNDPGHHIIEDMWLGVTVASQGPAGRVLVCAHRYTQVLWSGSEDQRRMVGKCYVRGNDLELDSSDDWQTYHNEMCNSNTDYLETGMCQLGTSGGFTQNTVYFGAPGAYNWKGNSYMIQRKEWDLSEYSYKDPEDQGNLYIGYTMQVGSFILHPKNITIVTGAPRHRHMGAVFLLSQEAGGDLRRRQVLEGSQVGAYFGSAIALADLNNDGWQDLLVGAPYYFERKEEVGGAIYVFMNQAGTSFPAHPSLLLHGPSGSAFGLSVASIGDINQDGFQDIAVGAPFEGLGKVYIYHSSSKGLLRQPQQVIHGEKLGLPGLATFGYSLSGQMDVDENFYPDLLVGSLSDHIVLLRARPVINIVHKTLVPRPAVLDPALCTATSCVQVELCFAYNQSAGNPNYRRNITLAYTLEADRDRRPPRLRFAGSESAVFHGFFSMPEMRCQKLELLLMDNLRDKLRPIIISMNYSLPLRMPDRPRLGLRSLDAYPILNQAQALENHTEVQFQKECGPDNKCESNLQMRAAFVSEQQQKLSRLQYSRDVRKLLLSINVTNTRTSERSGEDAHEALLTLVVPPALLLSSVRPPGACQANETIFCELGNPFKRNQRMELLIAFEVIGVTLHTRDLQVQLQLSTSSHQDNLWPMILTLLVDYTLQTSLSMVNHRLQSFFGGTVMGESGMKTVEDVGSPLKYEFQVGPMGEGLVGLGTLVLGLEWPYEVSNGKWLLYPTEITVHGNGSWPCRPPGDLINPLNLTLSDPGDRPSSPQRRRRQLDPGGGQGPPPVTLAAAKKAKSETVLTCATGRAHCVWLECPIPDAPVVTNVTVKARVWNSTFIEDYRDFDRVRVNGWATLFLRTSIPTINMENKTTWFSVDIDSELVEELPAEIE


Experiments:
[1] = molecular target: T1, human ITGa3 protein (human); experiment: ELISA; human ITGa3 protein adsorbed to plate; anti-mouse FAB-peroxidase secondary
[2] = molecular target: T1, human ITGa3 protein (human); experiment: ELISA; human ITGa3 protein adsorbed to plate; anti-human FAB-peroxidase secondary

Row | Binder | binding [1] | binding [2]
1 | ITGa3-VM2 (antibody, mouse IgG1, V domains shown) VH: EVQLQESGAELVKPGTSVRLSCKASGYTFTEYIIHWVKQRSGQGLEWIGWFYPESGSVKYNETFKGRATLTADKSSSTVYMELSRLTSEDSAVYFCARHEERDYYGYYAMDYWGQGTSVTVSS VL: DIVMTQTPTTLAASPGEKIIITCSASSSISSNYLHWYQQKPGFSPKLLIYRTSNLASGVPARFSGSGSGTSYSLTIGTMEAEDVATYYCQQGSSIPRFTSGSGTKLEIK | binds | 
2 | Lc1/Hc1 (antibody, V domains shown) VH: QVQLVQSGAEVKKPGSSVKVSCKASGYTFTEYIIHWVRQAPGQGLEWIGWFYPESGSVKYNETFKGRATLTADKSTSTAYMELSSLRSEDTAVYYCARHEERDYYGYYAMDYWGQGTTVTVSS VL: DIQMTQSPSSLSASVGDRVTITCSASSSISSNYLHWYQQKPGKVPKLLIYRTSNLASGVPSRFSGSGSGTDYTLTISSLQPEDVATYYCQQGSSIPRFTSGGGTKVEIK |  | binds
3 | Lc1/Hc1A (antibody, V domains shown) VH: QVQLVQSGAEVKKPGSSVKVSCKASGYTFTEYIIHWVRQAPGQGLEWIGWFYPESGSVKYNEAFKGRATLTADKSTSTAYMELSSLRSEDTAVYYCARHEERDYYGYYAMDYWGQGTTVTVSS VL: DIQMTQSPSSLSASVGDRVTITCSASSSISSNYLHWYQQKPGKVPKLLIYRTSNLASGVPSRFSGSGSGTDYTLTISSLQPEDVATYYCQQGSSIPRFTSGGGTKVEIK |  | binds
4 | Lc1/Hc1G (antibody, V domains shown) VH: QVQLVQSGAEVKKPGSSVKVSCKASGYTFTEYIIHWVRQAPGQGLEWIGWFYPESGSVKYNEGFKGRATLTADKSTSTAYMELSSLRSEDTAVYYCARHEERDYYGYYAMDYWGQGTTVTVSS VL: DIQMTQSPSSLSASVGDRVTITCSASSSISSNYLHWYQQKPGKVPKLLIYRTSNLASGVPSRFSGSGSGTDYTLTISSLQPEDVATYYCQQGSSIPRFTSGGGTKVEIK |  | binds
5 | Lc1/Hc1S (antibody, V domains shown) VH: QVQLVQSGAEVKKPGSSVKVSCKASGYTFTEYIIHWVRQAPGQGLEWIGWFYPESGSVKYSETFKGRATLTADKSTSTAYMELSSLRSEDTAVYYCARHEERDYYGYYAMDYWGQGTTVTVSS VL: DIQMTQSPSSLSASVGDRVTITCSASSSISSNYLHWYQQKPGKVPKLLIYRTSNLASGVPSRFSGSGSGTDYTLTISSLQPEDVATYYCQQGSSIPRFTSGGGTKVEIK |  | binds
6 | Lc2/Hc1A (antibody, V domains shown) VH: QVQLVQSGAEVKKPGSSVKVSCKASGYTFTEYIIHWVRQAPGQGLEWIGWFYPESGSVKYNEAFKGRATLTADKSTSTAYMELSSLRSEDTAVYYCARHEERDYYGYYAMDYWGQGTTVTVSS VL: DIQMTQSPSSLSASVGDRVIITCSASSSISSNYLHWYQQKPGKVPKLLIYRTSNLASGVPSRFSGSGSGTDYTLTISSLQPEDVATYYCQQGSSIPRFTSGGGTKVEIK |  | binds
7 | Lc1/Hc1S (VH of SEQ ID NO: 4 and VL of SEQ ID NO: 12) (antibody, V domains shown) VH: QVQLVQSGAEVKKPGSSVKVSCKASGYTFTEYIIHWVRQAPGQGLEWIGWFYPESGSVKYSETFKGRATLTADKSTSTAYMELSSLRSEDTAVYYCARHEERDYYGYYAMDYWGQGTTVTVSS VL: DIQMTQSPSSLSASVGDRVIITCSASSSISSNYLHWYQQKPGKVPKLLIYRTSNLASGVPSRFSGSGSGTDYTLTISSLQPEDVATYYCQQGSSIPRFTSGGGTKVEIK |  | binds
8 | Lc2/Hc1 (antibody, V domains shown) VH: QVQLVQSGAEVKKPGSSVKVSCKASGYTFTEYIIHWVRQAPGQGLEWIGWFYPESGSVKYNETFKGRATLTADKSTSTAYMELSSLRSEDTAVYYCARHEERDYYGYYAMDYWGQGTTVTVSS VL: DIQMTQSPSSLSASVGDRVIITCSASSSISSNYLHWYQQKPGKVPKLLIYRTSNLASGVPSRFSGSGSGTDYTLTISSLQPEDVATYYCQQGSSIPRFTSGGGTKVEIK |  | binds
